The list shows only some results of the screen, not a fair sample: it gathers tests that were run many times, whatever their T/C, doses with no T/C, and many T/C values between a quarter and a half above the control. Other doses and runs of a compound stand elsewhere. T/C is the treated group as % of the vehicle group. Some doses have a count of surviving animals in place of a T/C: the source files T/C as zero there, which appears to mark a toxic dose or a test without result, not a measured value. Some doses without a T/C left all or most animals alive at the check, yet need not have been tolerated: survival well below the control is almost never listed, so the zero probably covers shortened survival too. Counts of survivors are from the toxicity check (mostly the fifth day) where no day follows; animals may have died later. Schedules are NCI's codes, taken here to give the interval after Q, in days (D) or hours (H), and the number of doses after X. Some schedule codes hold Z or #, which are not explained here. Where survival is the endpoint, this PubChem deposit counts one and a half times the control or more as active, and values a quarter to a half above the control carry no call in these data; other NCI protocols may use other cut-offs. Some T/C values carry the count of animals alive at the toxicity check (mostly the fifth day); without a count, all were alive then. Some entries hold several experiments; their values stand side by side, smallest first.
Tested on: CD2F1 mice, L1210 leukemia ip, survival T/C
Assay: NCI In Vivo Anticancer Drug Screen. Data for tumor model L1210 Leukemia (intraperitoneal) in CD2F1 (CDF1) mice
Conditions: higher T/C = longer survival
Procedure, shortened: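 Ratio T/C, where T is the treated-group value and C the vehicle-dosed control value, from mice implanted with a transplantable tumor.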

[1] = T/C endpoint: mean survival time, dose: 300.0 mg/kg/injection, schedule: Q01DX001 (ip), vehicle: saline

## NC(=O)c1csc(C2OC(CO)C(O)C2O)n1 (stereo not given)
T/C endpoint: mean survival time, dose: 12.5 mg/kg/injection, schedule: Q01DX009 (ip), vehicle: water
  T/C: 146 % of control
T/C endpoint: mean survival time, dose: 25.0 mg/kg/injection, schedule: Q01DX005 (ip), vehicle: water
  T/C: 131 % of control
T/C endpoint: mean survival time, dose: 37.5 mg/kg/injection, schedule: Q01DX005 (ip), vehicle: water
  T/C: 125 % of control
T/C endpoint: mean survival time, dose: 50.0 mg/kg/injection, schedule: Q01DX005 (ip), vehicle: water
  T/C: 129 and 136 % of control
T/C endpoint: mean survival time, dose: 75.0 mg/kg/injection, schedule: Q01DX005 (ip), vehicle: water
  T/C: 136 % of control
T/C endpoint: mean survival time, dose: 100.0 mg/kg/injection, schedule: Q01DX005 (ip), vehicle: water
  T/C: 144, 149, 158, 165 % of control
T/C endpoint: mean survival time, dose: 200.0 mg/kg/injection, schedule: Q01DX005 (ip), vehicle: water
  T/C: 157, 168, 169, 181 % of control
T/C endpoint: mean survival time, dose: 600.0 mg/kg/injection, schedule: Q01DX005 (ip), vehicle: water
  survivor count: 5 of 6
T/C endpoint: mean survival time, dose: 1200.0 mg/kg/injection, schedule: Q01DX005 (ip), vehicle: water
  survivor count: 4 of 6
T/C endpoint: median survival time, dose: 8.0 mg/kg/injection, schedule: Q#A X018 (ip), vehicle: water
  T/C: 148 % of control
T/C endpoint: median survival time, dose: 16.0 mg/kg/injection, schedule: Q01DX009 (ip), vehicle: water
  T/C: 141 % of control
T/C endpoint: median survival time, dose: 32.0 mg/kg/injection, schedule: Q01DX005 (iv), vehicle: water
  T/C: 144 % of control [9 of 10 alive]
T/C endpoint: median survival time, dose: 62.5 mg/kg/injection, schedule: Q01DX005 (ip), vehicle: water
  T/C: 143 % of control
T/C endpoint: median survival time, dose: 64.0 mg/kg/injection, schedule: Q01DX009 (ip), vehicle: water, evaluated on day 30
  T/C: 163 and 165 % of control
T/C endpoint: median survival time, dose: 64.0 mg/kg/injection, schedule: Q01DX009 (ip), vehicle: water, evaluated on day 60
  T/C: 167 and 191 % of control
T/C endpoint: median survival time, dose: 75.0 mg/kg/injection, schedule: Q01DX005 (ip), vehicle: water
  T/C: 143 % of control
T/C endpoint: median survival time, dose: 125.0 mg/kg/injection, schedule: Q01DX005 (ip), vehicle: water
  T/C: 145 % of control
T/C endpoint: median survival time, dose: 128.0 mg/kg/injection, schedule: Q01DX001 (iv), vehicle: water
  T/C: 126 % of control
T/C endpoint: median survival time, dose: 128.0 mg/kg/injection, schedule: Q01DX009 (ip), vehicle: water, evaluated on day 30
  T/C: 177 and 185 % of control
T/C endpoint: median survival time, dose: 128.0 mg/kg/injection, schedule: Q01DX009 (ip), vehicle: water, evaluated on day 60
  T/C: 192 and 209 % of control
T/C endpoint: median survival time, dose: 256.0 mg/kg/injection, schedule: Q01DX001 (iv), vehicle: water
  T/C: 132 % of control
T/C endpoint: median survival time, dose: 256.0 mg/kg/injection, schedule: Q01DX009 (ip), vehicle: water, evaluated on day 30
  T/C: 204 and 234 % of control
T/C endpoint: median survival time, dose: 256.0 mg/kg/injection, schedule: Q01DX009 (ip), vehicle: water, evaluated on day 60
  T/C: 228 and 231 % of control
T/C endpoint: median survival time, dose: 256.0 mg/kg/injection, schedule: Q04DX003 (ip), vehicle: water
  T/C: 148 % of control
T/C endpoint: median survival time, dose: 512.0 mg/kg/injection, schedule: Q01DX001 (ip), vehicle: water
  T/C: 128 % of control
T/C endpoint: median survival time, dose: 512.0 mg/kg/injection, schedule: Q01DX001 (iv), vehicle: water
  T/C: 146 % of control
T/C endpoint: median survival time, dose: 512.0 mg/kg/injection, schedule: Q01DX001 (oral), vehicle: water
  T/C: 130 % of control
T/C endpoint: median survival time, dose: 512.0 mg/kg/injection, schedule: Q01DX009 (ip), vehicle: water, evaluated on day 30
  T/C: 228 and 256 % of control
T/C endpoint: median survival time, dose: 512.0 mg/kg/injection, schedule: Q01DX009 (ip), vehicle: water, evaluated on day 60
  T/C: 234 and 247 % of control
T/C endpoint: median survival time, dose: 1024.0 mg/kg/injection, schedule: Q01DX001 (ip), vehicle: water
  T/C: 133 % of control
T/C endpoint: median survival time, dose: 1024.0 mg/kg/injection, schedule: Q01DX001 (iv), vehicle: water
  T/C: 146 % of control
T/C endpoint: median survival time, dose: 1024.0 mg/kg/injection, schedule: Q01DX001 (oral), vehicle: water
  T/C: 146 % of control
T/C endpoint: median survival time, dose: 1024.0 mg/kg/injection, schedule: Q01DX009 (ip), vehicle: water, evaluated on day 30
  T/C: 217 and 262 % of control
T/C endpoint: median survival time, dose: 1024.0 mg/kg/injection, schedule: Q01DX009 (ip), vehicle: water, evaluated on day 60
  T/C: 119 and 170 % of control [9 of 10 alive]
T/C endpoint: median survival time, dose: 1024.0 mg/kg/injection, schedule: Q#A X018 (ip), vehicle: water
  survivor count: 3 of 10
T/C endpoint: median survival time, dose: 1200.0 mg/kg/injection, schedule: Q01DX005 (ip), vehicle: water
  survivor count: 0 of 6
T/C endpoint: median survival time, dose: 2048.0 mg/kg/injection, schedule: Q01DX001 (ip), vehicle: water
  survivor count: 6 of 10
T/C endpoint: median survival time, dose: 4096.0 mg/kg/injection, schedule: Q04DX003 (ip), vehicle: water
  survivor count: 2 of 10

## CCN(C)N=Nc1ccc(C(N)=O)cc1
T/C endpoint: mean survival time, dose: 37.5 mg/kg/injection, schedule: Q01DX009 (ip), vehicle: Klucel (hydroxypropylcellulose) (HPC)
  T/C: 134 % of control
T/C endpoint: mean survival time, dose: 50.0 mg/kg/injection, schedule: Q01DX009 (oral), vehicle: saline with Tween-80
  T/C: 126 % of control
T/C endpoint: mean survival time, dose: 150.0 mg/kg/injection, schedule: Q01DX009 (ip), vehicle: Klucel (hydroxypropylcellulose) (HPC)
  T/C: 146 % of control
T/C endpoint: mean survival time, dose: 300.0 mg/kg/injection, schedule: Q01DX009 (ip), vehicle: Klucel (hydroxypropylcellulose) (HPC)
  survivor count: 4 of 6
T/C endpoint: mean survival time, dose: 400.0 mg/kg/injection, schedule: Q01DX009 (oral), vehicle: saline with Tween-80
  survivor count: 4 of 6
T/C endpoint: mean survival time, dose: 800.0 mg/kg/injection, schedule: Q01DX009 (oral), vehicle: saline with Tween-80
  survivor count: 0 of 6

## Cc1cccc(N=Cc2ccc3c(c2)OCO3)c1
T/C endpoint: mean survival time, dose: 400.0 mg/kg/injection, schedule: Q04DX003 (ip), vehicle: Klucel (hydroxypropylcellulose) (HPC)
  survivor count: 6 of 6

## CCOC(=O)c1ccc(N)cc1
T/C endpoint: mean survival time, dose: 300.0 mg/kg/injection, schedule: Q01DX001 (ip), vehicle: other
  survivor count: 2 of 6
T/C endpoint: mean survival time, dose: 300.0 mg/kg/injection, schedule: Q04DX003 (ip), vehicle: saline with Tween-80
  survivor count: 3 of 6

## CC(C)CCNCCO
[1]
  survivor count: 2 of 6

## CN(C)C1C(=O)C(C(=O)NP(=O)(NCCCO)N(CCCl)CCCl)=C(O)C2(O)C(=O)C3=C(O)c4c(O)cccc4C(C)(O)C3CC12 (stereo not given)
T/C endpoint: mean survival time, dose: 500.0 mg/kg/injection, schedule: Q01DX001 (ip), vehicle: saline with Tween-80
  T/C: 148 % of control [4 of 6 alive]
T/C endpoint: median survival time, dose: 25.0 mg/kg/injection, schedule: Q01DX009 (ip), vehicle: saline with Tween-80
  T/C: 127 % of control
T/C endpoint: median survival time, dose: 50.0 mg/kg/injection, schedule: Q01DX009 (ip), vehicle: saline with Tween-80
  T/C: 127 % of control
T/C endpoint: median survival time, dose: 100.0 mg/kg/injection, schedule: Q01DX009 (ip), vehicle: saline with Tween-80
  T/C: 139 % of control
T/C endpoint: median survival time, dose: 400.0 mg/kg/injection, schedule: Q01DX009 (ip), vehicle: saline with Tween-80
  survivor count: 2 of 6

## N#C/C(=C\c1ccc(-c2ccccc2)cc1)c1ccc([N+](=O)[O-])cc1
T/C endpoint: mean survival time, dose: 100.0 mg/kg/injection, schedule: Q04DX003 (ip), vehicle: saline with Tween-80
  survivor count: 6 of 6

## Cc1cc2c(c3oc(C4(C)OC4C4OC4C)cc(=O)c13)C(=O)c1c(O)c(C3CC(C)(N(C)C)C(O)C(C)O3)cc(C3CC(N(C)C)C(O)C(C)O3)c1C2=O (stereo not given)
T/C endpoint: mean survival time, dose: 80.0 micrograms/kg/injection, schedule: Q01DX009 (ip), vehicle: water
  survivor count: 7 of 10
T/C endpoint: mean survival time, dose: 160.0 micrograms/kg/injection, schedule: Q01DX009 (ip), vehicle: water
  survivor count: 0 of 10

## CC(C)(C)OC(=O)NCC(=O)ON1C(=O)CCC1=O
T/C endpoint: mean survival time, dose: 400.0 mg/kg/injection, schedule: Q04DX003 (ip), vehicle: saline with Tween-80
  survivor count: 3 of 6

## CC(=O)NC(=O)CC(O)(c1ccccc1)c1ccccc1
T/C endpoint: mean survival time, dose: 100.0 mg/kg/injection, schedule: Q01DX001 (ip), vehicle: saline with Tween-80
  survivor count: 6 of 6

## CN(C1=CC(=O)C(N(C)C2CCCCC2)=CC1=O)C1CCCCC1
T/C endpoint: mean survival time, dose: 75.0 mg/kg/injection, schedule: Q01DX001 (ip), vehicle: saline
  survivor count: 0 of 6
T/C endpoint: mean survival time, dose: 150.0 mg/kg/injection, schedule: Q01DX001 (ip), vehicle: saline
  survivor count: 0 of 6
[1]
  survivor count: 0 of 6

## Nc1nc(N)c2nc(-c3ccc(Cl)c(Cl)c3)c(N)nc2n1
T/C endpoint: mean survival time, dose: 200.0 mg/kg/injection, schedule: Q01DX009 (ip), vehicle: water
  survivor count: 3 of 3

## O=c1[nH]c(=O)c2ncn(C3OC(CO)C(O)C3O)c2[nH]1.O=c1[nH]c(=O)c2ncn(C3OC(CO)C(O)C3O)c2[nH]1.[NH2-].[NH2-].[Pt+2] (stereo not given)
T/C endpoint: mean survival time, dose: 25.0 mg/kg/injection, schedule: Q04DX003 (ip), vehicle: water
  T/C: 126 % of control
T/C endpoint: mean survival time, dose: 50.0 mg/kg/injection, schedule: Q#A X018 (ip), vehicle: water
  T/C: 128 % of control
T/C endpoint: mean survival time, dose: 100.0 mg/kg/injection, schedule: Q#A X018 (ip), vehicle: water
  T/C: 144 % of control

— PubChem BioAssay AID256 (DTP/NCI, 2004)
